# Reference: the supplement of paper PMC8728848
# This is one part of the list.
# B1: Flo1 (Saccharomyces cerevisiae), P32768 (protein)
# chain: SGATEACLPAGQRKSGMNINFYQYSLKDSSTYSNAAYMAYGYASKTKLGSVGGQTDISIDYNIPCVSSSGTFPCPQEDSYGNWGCKGMGACSNSQGIAYWSTDLFGFYTTPTNVTLEMTGYFLPPQTGSYTFKFATVDDSAILSVGGATAFNCCAQQQPPITSTNFTIDGIKPWGGSLPPNIEGTVYMYAGYYYPMKVVYSNAVSWGTLPISVTLPDGTTVSDDFEGYVYSFDDDLSQSNCTVPDPSNY
# How the values were obtained:
# Assay in all cases: glycan array binding signal (z-score within array); higher = stronger binding
# Settings in all cases: glycan notation: IUPAC condensed, linker removed
# [1] = biological target: Fuc(a1-2)[GalNAc(a1-3)]Gal(b1-3)GalNAc(b1-3)Gal(a1-4)Gal(b1-4)Glc
# Method in brief: (§1)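 Arrays were curated from the Consortium for Functional Glycomics database, 3228 in total, and kept only where the protein sequence was available. Binding is expressed as a within-array Z-score. This score was averaged across arrays of the same protein sequence at different concentrations or buffers and across linkers, and negative values can be read as non-binding.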
# [2] = biological target: Fuc(a1-2)[GalNAc(a1-3)]Gal(b1-3)GlcNAc
# Method in brief: as §1
# [3] = biological target: Fuc(a1-2)[GalNAc(a1-3)]Gal(b1-3)GlcNAc(b1-2)Man(a1-3)[Fuc(a1-2)[GalNAc(a1-3)]Gal(b1-3)GlcNAc(b1-2)Man(a1-6)]Man(b1-4)GlcNAc(b1-4)GlcNAc
# Method in brief: as §1
# [4] = biological target: Fuc(a1-2)[GalNAc(a1-3)]Gal(b1-3)GlcNAc(b1-2)Man(a1-3)[Fuc(a1-2)[GalNAc(a1-3)]Gal(b1-3)GlcNAc(b1-2)Man(a1-6)]Man(b1-4)GlcNAc(b1-4)[Fuc(a1-6)]GlcNAc
# Method in brief: as §1
# [5] = biological target: Fuc(a1-2)[GalNAc(a1-3)]Gal(b1-3)GlcNAc(b1-3)GalNAc
# Method in brief: as §1
# [6] = biological target: Fuc(a1-2)[GalNAc(a1-3)]Gal(b1-3)GlcNAc(b1-6)GalNAc
# Method in brief: as §1
# [7] = biological target: Fuc(a1-2)[GalNAc(a1-3)]Gal(b1-4)Glc
# Method in brief: as §1
# [8] = biological target: Fuc(a1-2)[GalNAc(a1-3)]Gal(b1-4)GlcNAc
# Method in brief: as §1
# [9] = biological target: Fuc(a1-2)[GalNAc(a1-3)]Gal(b1-4)GlcNAc(b1-2)Man
# Method in brief: as §1
# [10] = biological target: Fuc(a1-2)[GalNAc(a1-3)]Gal(b1-4)GlcNAc(b1-2)Man(a1-3)[Fuc(a1-2)[GalNAc(a1-3)]Gal(b1-4)GlcNAc(b1-2)Man(a1-6)]Man(b1-4)GlcNAc(b1-4)GlcNAc
# Method in brief: as §1
# [11] = biological target: Fuc(a1-2)[GalNAc(a1-3)]Gal(b1-4)GlcNAc(b1-2)Man(a1-3)[Fuc(a1-2)[GalNAc(a1-3)]Gal(b1-4)GlcNAc(b1-2)Man(a1-6)]Man(b1-4)GlcNAc(b1-4)[Fuc(a1-6)]GlcNAc
# Method in brief: as §1
# [12] = biological target: Fuc(a1-2)[GalNAc(a1-3)]Gal(b1-4)GlcNAc(b1-3)Gal(b1-4)GlcNAc
# Method in brief: as §1
# [13] = biological target: Fuc(a1-2)[GalNAc(a1-3)]Gal(b1-4)GlcNAc(b1-3)Gal(b1-4)GlcNAc(b1-3)Gal(b1-4)GlcNAc
# Method in brief: as §1
# [14] = biological target: Fuc(a1-2)[GalNAc(a1-3)]Gal(b1-4)GlcNAc(b1-3)GalNAc
# Method in brief: as §1
# [15] = biological target: Fuc(a1-2)[GalNAc(a1-3)]Gal(b1-4)GlcNAc(b1-3)[Fuc(a1-2)[GalNAc(a1-3)]Gal(b1-4)GlcNAc(b1-6)]GalNAc
# Method in brief: as §1
# [16] = biological target: Fuc(a1-2)[GalNAc(a1-3)]Gal(b1-4)GlcNAc(b1-6)GalNAc
# Method in brief: as §1
# [17] = biological target: Fuc(a1-2)[GalNAc(a1-3)]Gal(b1-4)[Fuc(a1-3)]GlcNAc
# Method in brief: as §1
# [18] = biological target: Fuc(a1-2)[GalNAc(a1-3)]Gal(b1-4)[Fuc(a1-3)]GlcNAc(b1-3)GalNAc
# Method in brief: as §1
# [19] = biological target: Fuc(a1-2)[GalNAc(a1-4)]Gal(b1-4)GlcNAc
# Method in brief: as §1
# [20] = biological target: Fuc(a1-2)[GalNAc(b1-3)]Gal
# Method in brief: as §1
# Fuc(a1-3)GlcNAc = biological target: Fuc(a1-3)GlcNAc
# Method in brief: as §1
# [21] = biological target: Fuc(a1-3)[Gal(b1-4)]Glc6S
# Method in brief: as §1
# [22] = biological target: Fuc(a1-3)[Gal(b1-4)]GlcNAc
# Method in brief: as §1
# [23] = biological target: Fuc(a1-3)[Gal(b1-4)]GlcNAc(b1-2)Man
# Method in brief: as §1
# [24] = biological target: Fuc(a1-3)[Gal(b1-4)]GlcNAc(b1-2)Man(a1-3)[Fuc(a1-3)[Gal(b1-4)]GlcNAc(b1-2)Man(a1-6)]Man(b1-4)GlcNAc(b1-4)GlcNAc
# Method in brief: as §1
# [25] = biological target: Fuc(a1-3)[Gal(b1-4)]GlcNAc(b1-2)Man(a1-3)[Fuc(a1-3)[Gal(b1-4)]GlcNAc(b1-2)Man(a1-6)]Man(b1-4)GlcNAc(b1-4)[Fuc(a1-6)]GlcNAc
# Method in brief: as §1
# [26] = biological target: Fuc(a1-3)[Gal(b1-4)]GlcNAc(b1-3)Gal(b1-3)[Fuc(a1-4)]GlcNAc
# Method in brief: as §1
# [27] = biological target: Fuc(a1-3)[Gal(b1-4)]GlcNAc(b1-3)Gal(b1-4)[Fuc(a1-3)]GlcNAc
# Method in brief: as §1
# [28] = biological target: Fuc(a1-3)[Gal(b1-4)]GlcNAc(b1-3)Gal(b1-4)[Fuc(a1-3)]GlcNAc(b1-3)Gal(b1-4)[Fuc(a1-3)]GlcNAc
# Method in brief: as §1
# [29] = biological target: Fuc(a1-3)[Gal(b1-4)]GlcNAc(b1-3)GalNAc
# Method in brief: as §1
# [30] = biological target: Fuc(a1-3)[Gal(b1-4)]GlcNAc(b1-4)Gal(b1-4)[Fuc(a1-3)]GlcNAc
# Method in brief: as §1
# [31] = biological target: Fuc(a1-3)[Gal(b1-4)]GlcNAc(b1-4)Gal(b1-4)[Fuc(a1-3)]GlcNAc(b1-4)Gal(b1-4)[Fuc(a1-3)]GlcNAc
# Method in brief: as §1
# [32] = biological target: Fuc(a1-3)[Gal(b1-4)]GlcNAc(b1-6)GalNAc
# Method in brief: as §1
# [33] = biological target: Fuc(a1-3)[Gal(b1-4)]GlcNAc(b1-6)[Gal(b1-3)GlcNAc(b1-3)]Gal(b1-4)Glc
# Method in brief: as §1
# [34] = biological target: Fuc(a1-3)[Gal(b1-4)]GlcNAc6S
# Method in brief: as §1
# [35] = biological target: Fuc(a1-3)[Gal3S(b1-4)]Glc
# Method in brief: as §1
# [36] = biological target: Fuc(a1-3)[Gal3S(b1-4)]GlcNAc
# Method in brief: as §1
binder,measurement,setting,value
B1,glycan array binding signal (z-score),[1],-0.387
same,glycan array binding signal (z-score),[2],0.004
same,glycan array binding signal (z-score),[3],-0.156
same,glycan array binding signal (z-score),[4],0.532
same,glycan array binding signal (z-score),[5],0.66
same,glycan array binding signal (z-score),[6],-0.467
same,glycan array binding signal (z-score),[7],0.017
same,glycan array binding signal (z-score),[8],-0.195
same,glycan array binding signal (z-score),[9],-0.124
same,glycan array binding signal (z-score),[10],0.189
same,glycan array binding signal (z-score),[11],0.142
same,glycan array binding signal (z-score),[12],-0.404
same,glycan array binding signal (z-score),[13],-0.255
same,glycan array binding signal (z-score),[14],0.751
same,glycan array binding signal (z-score),[15],0.029
same,glycan array binding signal (z-score),[16],-0.029
same,glycan array binding signal (z-score),[17],0.058
same,glycan array binding signal (z-score),[18],1.15
same,glycan array binding signal (z-score),[19],0.471
same,glycan array binding signal (z-score),[20],-0.392
same,glycan array binding signal (z-score),Fuc(a1-3)GlcNAc,-0.377
same,glycan array binding signal (z-score),[21],0.706
same,glycan array binding signal (z-score),[22],-0.054
same,glycan array binding signal (z-score),[23],0.953
same,glycan array binding signal (z-score),[24],-0.236
same,glycan array binding signal (z-score),[25],0.999
same,glycan array binding signal (z-score),[26],0.11
same,glycan array binding signal (z-score),[27],0.46
same,glycan array binding signal (z-score),[28],0.018
same,glycan array binding signal (z-score),[29],0.589
same,glycan array binding signal (z-score),[30],0.775
same,glycan array binding signal (z-score),[31],-0.195
same,glycan array binding signal (z-score),[32],-0.083
same,glycan array binding signal (z-score),[33],-0.753
same,glycan array binding signal (z-score),[34],0.591
same,glycan array binding signal (z-score),[35],0.119
same,glycan array binding signal (z-score),[36],0.026

# In another format: results already given
binder | measurement | setting | value
B1 | glycan array binding signal (z-score) | [19] | 0.471
same | glycan array binding signal (z-score) | [20] | -0.392
same | glycan array binding signal (z-score) | Fuc(a1-3)GlcNAc | -0.377
